Measurements as given in US20230277680A1, “CONJUGATE OF A SINGLE DOMAIN ANTIBODY, A SAPONIN AND AN EFFECTOR MOLECULE, PHARMACEUTICAL COMPOSITION COMPRISING THE SAME, THERAPEUTIC USE OF SAID PHARMACEUTICAL COMPOSITION” (SAPREME TECHNOLOGIES B.V., priority 2020, published 2023).
Where “and” joins values, the source holds several entries; their conditions need not be identical. Equal values may be shown once. Read-outs that look alike come from different tables or passages of the source. At least one compound was matched to its structure with a doubt left. Some results were stated once for a whole list of compounds, not compound by compound.

Key:
Assay in all cases: Cell viability (MTS) assay, cell killing
Format in all cases: cell-based, human
[1] = tested on: CaSki cells; details: read-out: [SO1861] IC50 cell killing, + fixed 50 μM trastuzumab-saporin
[2] = tested on: JIMT-1 cells; details: read-out: [SO1861] IC50 cell killing
[3] = tested on: A431 cells
Experimental: After treatment the cells were incubated for 72 hr at 37° C. before the cell viability was determined by a MTS-assay, performed according to the manufacturer's instruction (CellTiter 96® AQueous One Solution Cell Proliferation Assay, Promega). Briefly, the MTS solution was diluted 20× in DMEM without phenol red (PAN-Biotech GmbH) supplemented with 10% FBS. The cells were washed once with 200 μL/PBS well, after which 100 μL diluted MTS solution was added/well. The plate was incubated for approximately 20-30 minutes at 37° C. Subsequently, the OD at 492 nm was measured on a Thermo Scientific Multiskan FC plate reader (Thermo Scientific). For quantification the background signal of ‘medium only’ wells was subtracted from all other wells, before the cell viability percentage of treated/untreated cells was calculated, by dividing the background corrected signal of treated wells over the background corrected signal of the untreated wells (×100). […]
After treatment the cells were incubated for 72 hr at 37° C. before the cell viability was determined by a MTS-assay, performed according to the manufacturer's instruction (CellTiter 96® AQueous One Solution Cell Proliferation Assay, Promega). […] Subsequently, the optical density at 492 nm was measured on a Thermo Scientific Multiskan FC plate reader (Thermo Scientific). […]

[4] = tested on: HeLa cells
[5] = tested on: A2058 cells
[6] = read-out: [SO1861] IC50 cell killing, + fixed 50 μM trastuzumab-saporin
[7] = read-out: [SO1861] IC50 cell killing, + fixed 10 μM cetuximab-saporin

With `CC(=O)O[C@H]1[C@H](O[C@@H]2OC[C@@H](O)[C@H](O)[C@H]2O)[C@@H](O)[C@H](O[C@@H]2[C@H](O)[C@@H](O[C@@H]3O[C@@H](C)[C@H](O[C@@H]4OC[C@@H](O)[C@H](O[C@@H]5OC[C@@H](O)[C@H](O)[C@H]5O)[C@H]4O)[C@@H](O)[C@H]3O)[C@H](OC(=O)[C@]34CCC(C)(C)C[C@H]3C3=CC[C@@H]5[C@@]6(C)CC[C@H](O[C@H]7O[C@H](C(=O)O)[C@@H](O)[C@H](O[C@@H]8OC[C@@H](O)[C@H](O)[C@H]8O)[C@H]7O[C@@H]7O[C@H](CO)[C@H](O)[C@H](O)[C@H]7O)[C@@](C)(C=O)[C@@H]6CC[C@@]5(C)[C@]3(C)C[C@H]4O)O[C@@H]2C)O[C@@H]1C` [SO1861] the IC50 [1] was 1 µM, the IC50 ([2]; JIMT1, + fixed 50 μM trastuzumab-saporin) was > 1 µM and the IC50 ([2]; JIMT-1, + fixed 5 μM cetuximab-saporin) was > 1 µM. The IC50 ([3]; read-out: [SO1861] IC50 cell killing, + fixed 5 μM cetuximab-saporin) was > 1 µM, the IC50 [3, 6] was > 1 µM and 1 µM and the IC50 [4, 7] was 1 µM. The IC50 [4, 6] was > 1 µM, the IC50 [5, 7] was > 1 µM and the IC50 [5, 6] was > 1 µM.
